Assay results published in article PMC5566321.
Results are given in words; binding and its absence hold for the method and conditions named. Binding seen in cells or lysates may run through a third protein. Some entries that bind do so weakly or less than the wild type.

The chains behind the UniProt entries cited, without tags or fusion partners.
UniProt Q9UKV8: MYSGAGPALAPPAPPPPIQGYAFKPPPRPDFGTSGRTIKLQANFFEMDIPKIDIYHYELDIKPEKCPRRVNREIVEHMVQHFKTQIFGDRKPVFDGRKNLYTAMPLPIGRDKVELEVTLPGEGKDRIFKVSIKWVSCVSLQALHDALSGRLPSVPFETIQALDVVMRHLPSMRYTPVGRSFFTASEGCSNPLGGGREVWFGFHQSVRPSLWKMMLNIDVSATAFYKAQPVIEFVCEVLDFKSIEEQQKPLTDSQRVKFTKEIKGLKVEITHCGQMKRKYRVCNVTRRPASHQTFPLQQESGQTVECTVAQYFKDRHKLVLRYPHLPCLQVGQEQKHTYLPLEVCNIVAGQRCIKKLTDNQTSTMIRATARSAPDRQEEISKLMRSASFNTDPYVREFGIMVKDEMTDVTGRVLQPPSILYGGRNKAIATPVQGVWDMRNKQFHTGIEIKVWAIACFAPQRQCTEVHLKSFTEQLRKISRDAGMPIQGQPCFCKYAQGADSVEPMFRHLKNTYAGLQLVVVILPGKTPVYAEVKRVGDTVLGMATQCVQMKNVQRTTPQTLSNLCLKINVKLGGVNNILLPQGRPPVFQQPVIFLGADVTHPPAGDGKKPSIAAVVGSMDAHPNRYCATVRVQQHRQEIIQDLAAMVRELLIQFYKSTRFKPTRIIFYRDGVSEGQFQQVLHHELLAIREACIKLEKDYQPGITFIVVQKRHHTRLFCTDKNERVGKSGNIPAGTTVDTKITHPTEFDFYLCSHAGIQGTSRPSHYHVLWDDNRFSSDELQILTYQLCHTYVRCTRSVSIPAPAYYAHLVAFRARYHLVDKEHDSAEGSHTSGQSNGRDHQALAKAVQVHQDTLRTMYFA
UniProt Q96KQ7: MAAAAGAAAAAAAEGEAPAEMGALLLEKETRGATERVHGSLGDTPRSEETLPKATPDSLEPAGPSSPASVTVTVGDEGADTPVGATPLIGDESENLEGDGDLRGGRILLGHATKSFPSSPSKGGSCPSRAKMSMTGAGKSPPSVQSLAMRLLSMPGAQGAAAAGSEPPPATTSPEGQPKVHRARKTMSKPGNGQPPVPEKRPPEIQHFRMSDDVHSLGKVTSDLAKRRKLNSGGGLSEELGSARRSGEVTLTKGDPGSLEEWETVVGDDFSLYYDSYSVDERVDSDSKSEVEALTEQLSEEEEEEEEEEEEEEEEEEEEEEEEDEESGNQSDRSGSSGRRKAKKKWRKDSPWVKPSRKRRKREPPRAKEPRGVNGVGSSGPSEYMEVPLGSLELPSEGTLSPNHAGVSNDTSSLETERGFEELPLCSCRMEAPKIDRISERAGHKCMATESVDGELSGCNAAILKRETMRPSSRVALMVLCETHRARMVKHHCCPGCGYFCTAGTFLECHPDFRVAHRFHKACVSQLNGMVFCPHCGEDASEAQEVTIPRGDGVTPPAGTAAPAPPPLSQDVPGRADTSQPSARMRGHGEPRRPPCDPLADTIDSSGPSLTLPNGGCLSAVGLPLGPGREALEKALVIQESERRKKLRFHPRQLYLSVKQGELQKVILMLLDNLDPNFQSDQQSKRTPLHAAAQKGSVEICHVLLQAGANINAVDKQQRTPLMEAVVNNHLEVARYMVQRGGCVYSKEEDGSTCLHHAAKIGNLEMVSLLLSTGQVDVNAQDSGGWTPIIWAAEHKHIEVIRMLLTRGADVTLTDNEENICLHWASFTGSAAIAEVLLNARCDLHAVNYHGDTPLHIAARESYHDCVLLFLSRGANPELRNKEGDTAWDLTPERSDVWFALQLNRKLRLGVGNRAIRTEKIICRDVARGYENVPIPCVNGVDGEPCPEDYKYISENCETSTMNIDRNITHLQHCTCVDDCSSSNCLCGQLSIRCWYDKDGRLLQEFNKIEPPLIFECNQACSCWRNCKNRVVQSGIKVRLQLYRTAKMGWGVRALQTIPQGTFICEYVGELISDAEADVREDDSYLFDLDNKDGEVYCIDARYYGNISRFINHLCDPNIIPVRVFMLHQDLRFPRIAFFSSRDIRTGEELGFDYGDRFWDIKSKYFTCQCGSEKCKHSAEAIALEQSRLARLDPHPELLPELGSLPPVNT
UniProt P25490: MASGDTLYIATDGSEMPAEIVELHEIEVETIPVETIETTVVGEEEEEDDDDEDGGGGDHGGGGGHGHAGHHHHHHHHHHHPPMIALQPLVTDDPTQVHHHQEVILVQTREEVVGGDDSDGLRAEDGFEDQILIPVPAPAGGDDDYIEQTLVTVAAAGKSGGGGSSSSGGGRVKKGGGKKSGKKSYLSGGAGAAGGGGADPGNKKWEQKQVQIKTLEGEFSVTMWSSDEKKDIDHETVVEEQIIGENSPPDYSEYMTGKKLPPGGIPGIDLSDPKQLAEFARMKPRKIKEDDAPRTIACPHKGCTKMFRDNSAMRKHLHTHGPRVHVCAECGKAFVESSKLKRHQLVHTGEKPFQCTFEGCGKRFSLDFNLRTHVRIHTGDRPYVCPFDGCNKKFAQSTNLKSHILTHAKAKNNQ

Molecular target: Argonaute 2 (human (endogenous in MKN-45)) (UniProt Q9UKV8)
Experiment: co-IP; immunoprecipitation with an AGO2 antibody on protein A-Sepharose beads, western blot; MKN-45 cells stably transfected with mock or miR-584-3p precursor

**Q.** For “euchromatic histone lysine methyltransferase 2 (from UniProt Q96KQ7 1-1210)”, which binding is on record?
**A.** The binding was “binds”.

**Q.** With Yin Yang 1 (from UniProt P25490 1-414) as the substance, how does the binding read?
**A.** Its binding is “no binding”.
